Values from PubChem BioAssay AID1259327 (Drosophila RNAi Screening Center, 2017).
Purpose: 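Data from controls in screens of zinc and manganese toxicity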. Cell system: Drosophila S2R+ cells. Reagents: long dsRNA against Drosophila genes. Duration: 5 days (water added on day 4, read one day later). Conditions: water added as vehicle, no metal, one day before read-out. Measured: 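Total ATP measured by luciferase light, scaled to plate mean, duplicates averaged, then z-scored across plates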. Scale: ATP z-score: higher = more total ATP than typical wells; ATP luminescence: higher = more total ATP. Active means: 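Called active when the ATP z-score exceeds 1.5 or falls below -1.5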. Calls: active = hit: ATP up or down; inactive = no clear ATP change.
Here is one part, drawn at random, of about 3,100 reagents. Over the whole deposit, 378 (12%) were called active. 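Hits include both directions; z-score sign shows ATP rise or fall; raw luminescence values are not plate-normalised.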 Unmarked entries are inactive. Not given: the amount of reagent.

| Gene | amplicon | ATP z-score, duplicate mean | ATP luminescence, replicate 1 (RLU) | ATP luminescence, replicate 2 (RLU) |
| --- | --- | --- | --- | --- |
| FMRFaR (FMRFamide Receptor) | DRSC08555 | -0.467 | 5.80e5 | 5.74e5 |
| CG7227 | DRSC03032 | -0.298 | 4.62e5 | 4.54e5 |
| CG7227 | DRSC39466 | 0.626 | 4.97e5 | 4.92e5 |
| rho (rhomboid) | DRSC08734 | 2.08 (active) | 8.09e5 | 8.07e5 |
| rho (rhomboid) | DRSC39615 | 1.4 | 5.99e5 | 5.20e5 |
| NaPi-T (Na[+]-dependent inorganic phosphate cotransporter) | DRSC07476 | -0.0884 | 5.71e5 | 6.52e5 |
| NaPi-T (Na[+]-dependent inorganic phosphate cotransporter) | DRSC24468 | -0.636 | 8.04e5 | 7.39e5 |
| Octalpha2R (alpha2-adrenergic-like octopamine receptor) | DRSC13319 | -0.32 | 3.04e5 | 6.78e5 |
| Octalpha2R (alpha2-adrenergic-like octopamine receptor) | DRSC15314 | 0.486 | 3.04e5 | 8.59e5 |
| Elo68beta (Elongase 68beta) | DRSC09860 | -0.0598 | 9.03e5 | 8.73e5 |
| CG12438 | DRSC02167 | -0.92 | 6.83e5 | 5.75e5 |
| Ir56d (Ionotropic receptor 56d) | DRSC06590 | -0.202 | 5.96e5 | 6.06e5 |
| Ir56d (Ionotropic receptor 56d) | DRSC28383 | 0.639 | 9.65e5 | 8.40e5 |
| Remo (Remoulade) | DRSC19710 | 0.944 | 7.54e5 | 7.58e5 |
| CG43066 | DRSC06927 | 1.8 (active) | 7.15e5 | 8.51e5 |
| CG43066 | DRSC26570 | 1 | 8.33e5 | 9.02e5 |
| laza (lazaro) | DRSC23330 | -0.627 | 5.72e5 | 4.80e5 |
| laza (lazaro) | DRSC29129 | -0.043 | 8.86e5 | 7.55e5 |
| CG42542 | DRSC15549 | -0.914 | 6.22e5 | 6.01e5 |
| CG42542 | DRSC26676 | -2.2 (active) | 9.69e5 | 9.69e5 |
| rho-6 (rhomboid-6) | DRSC02588 | -0.47 | 6.55e5 | 6.97e5 |
| rho-6 (rhomboid-6) | DRSC29070 | 0.48 | 9.31e5 | 8.34e5 |
| lili (lilipod) | DRSC14143 | -0.268 | 6.65e5 | 6.90e5 |
| lili (lilipod) | DRSC29667 | 0.815 | 1.00e6 | 8.48e5 |
| CadN2 (Cadherin-N2) | DRSC03062 | -0.873 | 6.43e5 | 6.24e5 |
| CadN2 (Cadherin-N2) | DRSC03063 | -0.649 | 8.33e5 | 7.89e5 |
| Alk (Anaplastic lymphoma kinase) | DRSC23342 | -1.83 (active) | 3.70e5 | 4.79e5 |
| Alk (Anaplastic lymphoma kinase) | DRSC36972 | -1.44 | 5.12e5 | 4.04e5 |
| Alk (Anaplastic lymphoma kinase) | DRSC36973 | -0.0388 | 6.02e5 | 5.51e5 |
